From patent publication US20190374627A1, “TARGET PEPTIDES FOR CANCER THERAPY AND DIAGNOSTICS” (priority 2016, published 2019)

How the values were obtained:
Design in all cases: key: The presence of phosphopeptides in previously analyzed samples including leukemia, colorectal cancer, melanoma, ovarian cancer, breast cancer, and esophageal cancer is indicated by ✓
melanoma = test: Presence of the phosphopeptide in previously analyzed melanoma samples
ovarian cancer = test: Presence of the phosphopeptide in previously analyzed ovarian cancer samples
esophageal cancer = test: Presence of the phosphopeptide in previously analyzed esophageal cancer samples
colorectal cancer = test: Presence of the phosphopeptide in previously analyzed colorectal cancer samples
leukemia = test: Presence of the phosphopeptide in previously analyzed leukemia samples

Question: Which results are given for “65 (SLFSSEESNLGA; (4)...(4) The amino acid at this position is optionally phosphorylated; listed as Homo sapiens) [compound 65]”?
Answer: Melanoma (melanoma): ✓; Ovarian (ovarian cancer): ✓

Question: For “380 (SRSSSVLSL; (8)...(8) The amino acid at this position is optionally phosphorylated; listed as Homo sapiens) [compound 380]”, which Esophageal (esophageal cancer) is on record?
Answer: ✓

Question: What does the source list for “6 (AVVSPPALHNA; (5)...(5) The amino acid at this position is optionally phosphorylated; listed as Homo sapiens) [compound 6]”?
Answer: Melanoma (melanoma): ✓; Ovarian (ovarian cancer): ✓

Question: How did the Melanoma (melanoma) turn out when “202 (RTRSPSPTL; (4)...(4) The amino acid at this position is optionally phosphorylated; listed as Homo sapiens) [compound 202]” was run?
Answer: ✓

Question: What about the Ovarian (ovarian cancer) of the same substance?
Answer: ✓

Question: What does the source list for “22 (KLIDIVSSQKV; (7)...(7) The amino acid at this position is optionally phosphorylated; listed as Homo sapiens) [compound 22]”?
Answer: Melanoma (melanoma): ✓; Ovarian (ovarian cancer): ✓; Colorectal (colorectal cancer): ✓

Question: Which results are given for “70 (SMTRSPPRV; (5)...(5) The amino acid at this position is optionally phosphorylated; listed as Homo sapiens) [compound 70]”?
Answer: Melanoma (melanoma): ✓; Ovarian (ovarian cancer): ✓

Question: Which results are given for “51 (RQLSSGVSEI; (4)...(4) The amino acid at this position is optionally phosphorylated; listed as Homo sapiens) [compound 51]”?
Answer: Melanoma (melanoma): ✓; Ovarian (ovarian cancer): ✓; Colorectal (colorectal cancer): ✓

Question: Which results are given for “57 (RVASPTSGV; (4)...(4) The amino acid at this position is optionally phosphorylated; listed as Homo sapiens) [compound 57]”?
Answer: Melanoma (melanoma): ✓; Ovarian (ovarian cancer): ✓; Colorectal (colorectal cancer): ✓

Question: “259 (RRISDPEVF; (4)...(4) The amino acid at this position is optionally phosphorylated; listed as Homo sapiens) [compound 259]” was tested. Which Leukemia (leukemia) did it give?
Answer: ✓

Question: What about the Ovarian (ovarian cancer) of the same substance?
Answer: ✓

Question: And the Colorectal (colorectal cancer)?
Answer: ✓

Question: Which Melanoma (melanoma) does the source give for “39 (RLFSKELRC; (4)...(4) The amino acid at this position is optionally phosphorylated; listed as Homo sapiens) [compound 39]” here?
Answer: ✓

Question: And the Ovarian (ovarian cancer)?
Answer: ✓

Question: Which Ovarian (ovarian cancer) does the source give for “2 (ALDSGASLLHL; (4)...(4) The amino acid at this position is optionally phosphorylated; listed as Homo sapiens) [compound 2]” here?
Answer: ✓

Question: What about the Colorectal (colorectal cancer) of the same substance?
Answer: ✓

Question: Which results are given for “27 (KTMSGTFLL; (4)...(4) The amino acid at this position is optionally phosphorylated; listed as Homo sapiens) [compound 27]”?
Answer: Ovarian (ovarian cancer): ✓; Colorectal (colorectal cancer): ✓

Question: Which Melanoma (melanoma) does the source give for “38 (RLFSKELR; (4)...(4) The amino acid at this position is optionally phosphorylated; listed as Homo sapiens) [compound 38]” here?
Answer: ✓

Question: And the Ovarian (ovarian cancer)?
Answer: ✓

Question: With “35 (RLDSYVR; (4)...(4) The amino acid at this position is optionally phosphorylated; listed as Homo sapiens) [compound 35]” as the substance, how does the Melanoma (melanoma) read?
Answer: ✓

Question: And the Ovarian (ovarian cancer)?
Answer: ✓

Question: For “55 (RTLSHISEA; (4)...(4) The amino acid at this position is optionally phosphorylated; listed as Homo sapiens) [compound 55]”, which Melanoma (melanoma) is on record?
Answer: ✓

Question: And the Ovarian (ovarian cancer)?
Answer: ✓

Question: “44 (RMYSFDDVL; (4)...(4) The amino acid at this position is optionally phosphorylated; listed as Homo sapiens) [compound 44]” was tested. Which Ovarian (ovarian cancer) did it give?
Answer: ✓

Question: Which Ovarian (ovarian cancer) does the source give for “72 (TVFSPTLPAA; (4)...(4) The amino acid at this position is optionally phosphorylated; listed as Homo sapiens) [compound 72]” here?
Answer: ✓

Question: Which Melanoma (melanoma) does the source give for “43 (RLSSPLHFV; (4)...(4) The amino acid at this position is optionally phosphorylated; listed as Homo sapiens) [compound 43]” here?
Answer: ✓

Question: What about the Ovarian (ovarian cancer) of the same substance?
Answer: ✓

Question: And the Colorectal (colorectal cancer)?
Answer: ✓

Question: For “53 (RSLSQELVGV; (4)...(4) The amino acid at this position is optionally phosphorylated; listed as Homo sapiens) [compound 53]”, which Ovarian (ovarian cancer) is on record?
Answer: ✓

Question: “62 (SLFSGDEENA; (4)...(4) The amino acid at this position is optionally phosphorylated; listed as Homo sapiens) [compound 62]” was tested. Which Ovarian (ovarian cancer) did it give?
Answer: ✓

Question: Which Ovarian (ovarian cancer) does the source give for “58 (SIMSPEIQL; (4)...(4) The amino acid at this position is optionally phosphorylated; listed as Homo sapiens) [compound 58]” here?
Answer: ✓

Question: How did the Melanoma (melanoma) turn out when “19 (KLASPELERL; (4)...(4) The amino acid at this position is optionally phosphorylated; listed as Homo sapiens) [compound 19]” was run?
Answer: ✓

Question: And the Ovarian (ovarian cancer)?
Answer: ✓

Question: And the Colorectal (colorectal cancer)?
Answer: ✓

Question: What does the source list for “74 (VLLSPVPEL; (4)...(4) The amino acid at this position is optionally phosphorylated; listed as Homo sapiens) [compound 74]”?
Answer: Melanoma (melanoma): ✓; Ovarian (ovarian cancer): ✓

Question: Which Ovarian (ovarian cancer) does the source give for “40 (RLLSDLEEL; (4)...(4) The amino acid at this position is optionally phosphorylated; listed as Homo sapiens) [compound 40]” here?
Answer: ✓

Question: For “33 (RLASYLDKV; (4)...(4) The amino acid at this position is optionally phosphorylated; listed as Homo sapiens) [compound 33]”, which Ovarian (ovarian cancer) is on record?
Answer: ✓

Question: With “48 (RQDSTPGKVFL; (4)...(4) The amino acid at this position is optionally phosphorylated; listed as Homo sapiens) [compound 48]” as the substance, how does the Melanoma (melanoma) read?
Answer: ✓

Question: What about the Ovarian (ovarian cancer) of the same substance?
Answer: ✓

Question: And the Colorectal (colorectal cancer)?
Answer: ✓

Question: What does the source list for “25 (KLMSPKADVKL; (4)...(4) The amino acid at this position is optionally phosphorylated; listed as Homo sapiens) [compound 25]”?
Answer: Melanoma (melanoma): ✓; Ovarian (ovarian cancer): ✓

Question: For “50 (RQLSALHRA; (4)...(4) The amino acid at this position is optionally phosphorylated; listed as Homo sapiens) [compound 50]”, which Ovarian (ovarian cancer) is on record?
Answer: ✓

Question: How did the Ovarian (ovarian cancer) turn out when “26 (KQDSLVINL; (4)...(4) The amino acid at this position is optionally phosphorylated; listed as Homo sapiens) [compound 26]” was run?
Answer: ✓

Question: Which Ovarian (ovarian cancer) does the source give for “3 (ALGNTPPFL; (5)...(5) The amino acid at this position is optionally phosphorylated; listed as Homo sapiens) [compound 3]” here?
Answer: ✓

Question: How did the Ovarian (ovarian cancer) turn out when “52 (RSLSESYEL; (4)...(4) The amino acid at this position is optionally phosphorylated; listed as Homo sapiens) [compound 52]” was run?
Answer: ✓

Question: Which Ovarian (ovarian cancer) does the source give for “1 (AIMRSPQMV; (5)...(5) The amino acid at this position is optionally phosphorylated; listed as Homo sapiens) [compound 1]” here?
Answer: ✓

Question: How did the Melanoma (melanoma) turn out when “21 (KLFPDTPLAL; (6)...(6) The amino acid at this position is optionally phosphorylated; listed as Homo sapiens) [compound 21]” was run?
Answer: ✓

Question: And the Ovarian (ovarian cancer)?
Answer: ✓

Question: And the Colorectal (colorectal cancer)?
Answer: ✓

Question: How did the Ovarian (ovarian cancer) turn out when “18 (KIGSIIFQV; (4)...(4) The amino acid at this position is optionally phosphorylated; listed as Homo sapiens) [compound 18]” was run?
Answer: ✓

Question: What does the source list for “284 (SPRRSRSISL; (5)...(5) The amino acid at this position is optionally phosphorylated; listed as Homo sapiens) [compound 284]”?
Answer: Melanoma (melanoma): ✓; Leukemia (leukemia): ✓; Ovarian (ovarian cancer): ✓; Colorectal (colorectal cancer): ✓

Question: How did the Ovarian (ovarian cancer) turn out when “15 (KAFSPVR; (4)...(4) The amino acid at this position is optionally phosphorylated; listed as Homo sapiens) [compound 15]” was run?
Answer: ✓

Question: And the Colorectal (colorectal cancer)?
Answer: ✓

Question: How did the Melanoma (melanoma) turn out when “29 (LMFSPVTSL; (4)...(4) The amino acid at this position is optionally phosphorylated; listed as Homo sapiens) [compound 29]” was run?
Answer: ✓

Question: And the Ovarian (ovarian cancer)?
Answer: ✓

Question: “76 (VMIGSPKKV; (5)...(5) The amino acid at this position is optionally phosphorylated; listed as Homo sapiens) [compound 76]” was tested. Which Melanoma (melanoma) did it give?
Answer: ✓

Question: What about the Ovarian (ovarian cancer) of the same substance?
Answer: ✓

Question: And the Colorectal (colorectal cancer)?
Answer: ✓

Question: Which results are given for “23 (KLIDRTESL; (8)...(8) The amino acid at this position is optionally phosphorylated; listed as Homo sapiens) [compound 23]”?
Answer: Ovarian (ovarian cancer): ✓; Colorectal (colorectal cancer): ✓

Question: With “31 (RLASASRAL; (4)...(4) The amino acid at this position is optionally phosphorylated; listed as Homo sapiens) [compound 31]” as the substance, how does the Ovarian (ovarian cancer) read?
Answer: ✓
